PubChem BioAssay AID504795 – Drosophila RNAi Screening Center | 2011

Aim: 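Fly genes whose loss alters neurite growth or neural cell form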 (primary screen)
System: primary Drosophila neurons and glia
Reagent: long dsRNA against Drosophila genes, 250 ng dsRNA per well
Time to read-out: one week
Measurement: 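GFP-labelled neurons and glia imaged live by automated microscope one week after 250 ng dsRNA per well; morphology scored by eye as descriptive phenotype terms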
The reagents shown are a selection, not the whole library. 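Every listed dsRNA shows some phenotype; how reagents were selected for listing is not stated.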 The numbers tell different reagents against one gene apart. No sequences are given here.

With bru2, what was measured?
phenotype seen, replicate 1: axon bundles split apart

What did the screen give for CG7512?
phenotype seen, replicate 1: axon bundles split apart

What is on record for Gmd?
phenotype seen, replicate 1: too many neurite branches

What did the screen give for Obp19b?
phenotype seen, replicate 1: sheet-like cell extensions

Which result is listed for Sf3b6?
phenotype seen, replicate 1: axon bundles split apart

Which result is listed for vers?
phenotype seen, replicate 1: too many neurite branches

With CG13385, what was measured?
phenotype seen, replicate 1: abnormal cell clusters

With dpr10 #1, what was measured?
phenotype seen, replicate 1: too many neurite branches; phenotype seen, replicate 2: too many neurite branches

Which result is listed for dpr10 #2?
phenotype seen, replicate 1: too many neurite branches

With CCT4, what does the deposit list?
phenotype seen, replicate 1: axon bundles split apart

For CG15073, how do the results read?
phenotype seen, replicate 1: axon bundles split apart

Which result is listed for CG6333?
phenotype seen, replicate 1: too many neurite branches

With fred, how do the results read?
phenotype seen, replicate 1: axon bundles split apart

What did the screen give for Abca3?
phenotype seen, replicate 1: axon bundles split apart

How did the screen score CG1316?
phenotype seen, replicate 1: sheet-like cell extensions

What is on record for CG11192?
phenotype seen, replicate 1: axon bundles split apart

How did the screen score Erk7?
phenotype seen, replicate 1: axon bundles split apart

Which result is listed for Prosbeta4?
phenotype seen, replicate 1: sheet-like cell extensions

With Atx2, what was measured?
phenotype seen, replicate 1: too many neurite branches

What did the screen give for CG31802?
phenotype seen, replicate 1: abnormal cell clusters

For CG30039, how do the results read?
phenotype seen, replicate 1: fewer cells

How did the screen score Cda5?
phenotype seen, replicate 1: axon bundles split apart

For ORY, what does the deposit list?
phenotype seen, replicate 1: axon bundles split apart

Part of the list above in another layout.
{"target":"CG13385","reagent no.":1,"phenotype seen, replicate 1":"abnormal cell clusters"}
{"target":"dpr10","reagent no.":1,"phenotype seen, replicate 1":"too many neurite branches","phenotype seen, replicate 2":"too many neurite branches"}
{"target":"dpr10","reagent no.":2,"phenotype seen, replicate 1":"too many neurite branches"}
{"target":"CCT4","reagent no.":1,"phenotype seen, replicate 1":"axon bundles split apart"}
{"target":"CG15073","reagent no.":1,"phenotype seen, replicate 1":"axon bundles split apart"}
{"target":"CG6333","reagent no.":1,"phenotype seen, replicate 1":"too many neurite branches"}
{"target":"fred","reagent no.":1,"phenotype seen, replicate 1":"axon bundles split apart"}
{"target":"Abca3","reagent no.":1,"phenotype seen, replicate 1":"axon bundles split apart"}
{"target":"CG1316","reagent no.":1,"phenotype seen, replicate 1":"sheet-like cell extensions"}

The listing continues.
How did the screen score CG45105?
phenotype seen, replicate 1: sheet-like cell extensions

How did the screen score Prosbeta1?
phenotype seen, replicate 1: too many neurite branches

For Lac, what was measured?
phenotype seen, replicate 1: axon bundles split apart

Which result is listed for bru1?
phenotype seen, replicate 1: abnormal cell clusters

For atilla, how do the results read?
phenotype seen, replicate 1: too many neurite branches

With Hr3, what was measured?
phenotype seen, replicate 1: axon bundles split apart

With CG9287, how do the results read?
phenotype seen, replicate 1: abnormal cell clusters

How did the screen score Lk?
phenotype seen, replicate 1: sheet-like cell extensions

With CG17145, what was measured?
phenotype seen, replicate 1: axon bundles split apart

How did the screen score His4r?
phenotype seen, replicate 1: abnormal cell clusters

With CG4610, what was measured?
phenotype seen, replicate 1: axon bundles split apart

What is on record for tow?
phenotype seen, replicate 1: axon bundles split apart

With RpS27A, what was measured?
phenotype seen, replicate 1: cell fragments present

What is on record for RpL14?
phenotype seen, replicate 1: beaded; swollen axons

With CG10597, what does the deposit list?
phenotype seen, replicate 1: abnormal cell clusters

What did the screen give for obst-J?
phenotype seen, replicate 1: reduced axon outgrowth

For CG13223, how do the results read?
phenotype seen, replicate 1: axon bundles split apart

With CG13907, what was measured?
phenotype seen, replicate 1: axon bundles split apart

For eag, what was measured?
phenotype seen, replicate 1: axon bundles split apart

What did the screen give for Or67c?
phenotype seen, replicate 1: too many neurite branches

With PIG-S, what was measured?
phenotype seen, replicate 1: too many neurite branches

Which result is listed for Plekhm1?
phenotype seen, replicate 1: axon bundles split apart

Which result is listed for hppy?
phenotype seen, replicate 1: beaded; swollen axons

For Pabp2, what does the deposit list?
phenotype seen, replicate 1: sheet-like cell extensions

Which result is listed for Vps39?
phenotype seen, replicate 1: axon bundles split apart

For ed, what was measured?
phenotype seen, replicate 1: axon bundles split apart

For CG12857, what does the deposit list?
phenotype seen, replicate 1: sheet-like cell extensions

With ND-B14.7, what does the deposit list?
phenotype seen, replicate 1: reduced axon outgrowth

With Gr5a, how do the results read?
phenotype seen, replicate 1: too many neurite branches

For Rrp46, how do the results read?
phenotype seen, replicate 1: sheet-like cell extensions

What did the screen give for Vm26Aa?
phenotype seen, replicate 1: reduced axon outgrowth

For Arf4, what was measured?
phenotype seen, replicate 1: too many neurite branches

For Fili, what does the deposit list?
phenotype seen, replicate 1: axon bundles split apart

For CG4789, how do the results read?
phenotype seen, replicate 1: sheet-like cell extensions

For CG42258 #1, what was measured?
phenotype seen, replicate 1: axon bundles split apart

For CG42258 #2, how do the results read?
phenotype seen, replicate 1: too many neurite branches

Which result is listed for RhoL?
phenotype seen, replicate 1: axon bundles split apart
